Data as given in the supplement of paper PMC8551327.
Structures can show the parent of a compound that is named as a salt. This is one part of the list. No stated cut-off is given here; in the data, active = 1.25 or more and inactive = the rest. Single values are uncertain, as repeats are few or missing.

Each compound was assayed on Kcc2-LUC knock-in mouse primary cortical neurons (Kcc2 promoter reporter) (assay: Kcc2 promoter-driven luciferase activity relative to vehicle control (fold of vehicle (ratio)); higher = stronger Kcc2 promoter activation (Kcc2 expression enhancer)). Conditions: 100 nM; 48 h.

Kcc2 promoter-driven luciferase activity, active:
COC(=O)[C@@]12OC[C@]34[C@H]([C@@H](O)[C@@H]1O)[C@@]1(C)CC(=O)C(O)=C(C)[C@@H]1C[C@H]3OC(=O)[C@H](OC(=O)C=C(C)C)[C@@H]24 1.31
O=C1Cc2c([nH]c3ccc(Br)cc23)-c2ccccc2N1 [Kenpaullone] 1.86
CNCC(=O)NC(CO)C(=O)NC(CO)C(=O)NC1C(C(N)=O)OC(n2ccc(N)nc2=O)C(O)C1O (stereo unspecified) [Aspiculamycin Hydrochloride] 1.25

Kcc2 promoter-driven luciferase activity, inactive:
CC/C(=C(\c1ccccc1)c1ccc(OCCN(C)C)cc1)c1ccccc1 [Tamoxifen citrate] 0.99
O=C1Nc2c(Cl)cc(Cl)cc2C1=N/N=C/c1ccco1 1.02
Cc1c2ccncc2c(C)c2c1sc1ccccc12 0.29
Cc1cc(N)c2ccccc2[n+]1CCCCCCCCCC[n+]1c(C)cc(N)c2ccccc21 [Decamine] 0.55
Cc1ccccc1OCC(COC(=O)Nc1ccccc1)OC(=O)Nc1ccccc1 (stereo unspecified) 0.17
Cc1ccc(S(=O)(=O)c2ccccc2[N+](=O)[O-])cc1 [1-Nitro-2-tosylbenzene] 0.732
CCC1=C(C[C@H]2NCCc3cc(OC)c(OC)cc32)C[C@H]2c3cc(OC)c(OC)cc3CCN2C1 [Dehydroemetine hydrochloride] 0.67
O=C(c1nc2ccc(Cl)cc2[nH]c1=O)C(O)c1ccc2c(c1)OCO2 (stereo unspecified) 0.91

Three structures out of the list, sorted by molecular weight, high to low.
Kcc2 promoter-driven luciferase activity, inactive:
Cc1cc(N)c2ccccc2[n+]1CCCCCCCCCC[n+]1c(C)cc(N)c2ccccc21 [Decamine] 0.55
Cc1ccccc1OCC(COC(=O)Nc1ccccc1)OC(=O)Nc1ccccc1 (stereo unspecified) 0.17
O=C(c1nc2ccc(Cl)cc2[nH]c1=O)C(O)c1ccc2c(c1)OCO2 (stereo unspecified) 0.91
